In all, about 390,000 compounds went through this assay and about 760 (0.19%) were called active. The inconclusive results got no clear call from the source; some entries with a clear call stand among them for comparison. Calls follow the shape of the dose curve; as a rule, active = well fitted inhibition curve with a large enough effect; inconclusive = small, poorly fitted or top-dose-only effect; inactive = flat fitted curve, though single readings scatter. A potency beside an inconclusive call is a rough fit, not a confirmed value.
assay: qHTS for Inhibitors of Vif-A3F Interactions: qHTS; details: HeLa A3F-eYFP + Vif (tagged APOBEC3F with the HIV-1 protein that degrades it), YFP fluorescence increase; series mostly up to 46.1 µM; activity, negative = active: at the top concentration; also: nearly all actives have a fitted effect of over 65% in size; as to activity, negative = active: % of control where 0% means no effect
Outline: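 HeLa cells stably expressing Vif plus C-terminally eYFP-tagged A3F were seeded, incubated overnight at 37 deg C, dosed with compound, incubated overnight again at 37 deg C. Yellow fluorescence (Ex 488/Em 500-530) reported blocked Vif-mediated A3F-eYFP degradation.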
Potency is read from the fitted curve at half-maximal effect.

SMILES	Potency	activity, negative = active
Cc1ccn2c(CC(C)(C)C)c(-c3ccc(F)cc3)nc2c1	inconclusive: 31.6 µM [inhibitor, single point]	
COc1ccc(/C=N/N=C2/CC(C)(C)Cc3n[nH]c(=O)cc32)cc1	inconclusive: 6.31 µM [inhibitor, single point]	
COc1ccc(-n2c(-c3ccc(Cl)cc3Cl)n[nH]c2=S)c(OC)c1		inactive: -1.22%
Nc1ccc(S(=O)(=O)O)cn1	inconclusive: 1.78 µM [inhibitor, partial curve, poor fit]	
N#Cc1ccc(OCc2noc(-c3ccsc3)n2)cc1	inconclusive: 35.5 µM [inhibitor, partial curve, poor fit]	
O=c1nc(Nc2ccc(OCc3ccccc3)cc2)sc2ncccc12		inactive: 1.87%
Cc1cccc(NC(=O)CN2CCN(C(=O)C(C)Oc3ccc(C#N)cc3)CC2)c1C (stereo unspecified)		inactive: 0.17%
O=C(O)CCCCCN1C(=O)/C(=C\c2ccc(-c3ccc(Cl)cc3)o2)SC1=S	inconclusive: 3.55 µM [inhibitor, partial curve, poor fit]	
COc1ccccc1C1C([N+](=O)[O-])=CC([N+](=O)[O-])=CN1C (stereo unspecified)	inconclusive: 17.8 µM [inhibitor, partial curve, poor fit]	
CCCCC(=O)Nc1ccc(C(=O)Nc2ccc(OC)cc2[N+](=O)[O-])cc1	inconclusive: 35.5 µM [inhibitor, single point]	
CCCCN(C(=O)CCC(=O)Nc1cc(C)on1)C(C(=O)NC1CCCC1)c1ccc(F)cc1 (stereo unspecified)		inactive: -15.6%
Cc1cccc(NC(=O)/C(C#N)=C/c2ccc(F)cc2)n1		inactive: 4.37%
COc1ccc(C(=O)NCCSC2CCCCC2)cc1	inconclusive: 3.55 µM [inhibitor, single point]	
CCCn1c(C(C)Nc2nc(-c3ccc(OC)cc3)cs2)nc2ccccc21 (stereo unspecified)	inconclusive: 20 µM [inhibitor, partial curve, poor fit]	
Cc1cc(NC(=O)CSc2nc3cc(Cl)ccc3o2)no1	inconclusive: 6.31 µM [inhibitor, single point]	
COc1ccc(CNC(=O)C(=O)NCC(c2cccnc2)N2CCN(c3ccccc3)CC2)cc1 (stereo unspecified)		inactive: 1.13%
CC1=C(c2ccc(Cl)cc2)S(=O)(=O)N=C1N1CCN(c2cc(C)ccc2C)CC1		inactive: -2.17%
COCc1cc(C)nc2sc(C(=O)Nc3ccccc3Br)c(N)c12	inconclusive: 35.5 µM [inhibitor, single point]	
CN(C)c1ccc(/C=C2\SC(=O)N(CCc3nnc(N)s3)C2=O)cc1	inconclusive: 20 µM [inhibitor, partial curve, poor fit]	
Cc1cc(NC(=O)NC(=O)c2ccccc2NC(=O)CN)ccc1Oc1ncc(Br)cn1		inactive: 1.43%
CC(=O)Nc1ccc(S(=O)(=O)NCC2CCC(C(=O)NCCc3ccc(C)cc3)CC2)cc1 (stereo unspecified)		inactive: -5.09%
CC1CC(C)(C)Nc2ccc(OC(=O)c3ccco3)cc21 (stereo unspecified)	active: 31.6 µM	
O=C(O)CC(C(=O)O)N1C(=O)/C(=C/c2ccc(-c3nc4ccccc4s3)o2)SC1=S (stereo unspecified)		inactive: -16.6%
CCN(CC)S(=O)(=O)c1cc([N+](=O)[O-])ccc1N=Nc1c(O)[nH]c2ccccc12	active: 12.6 µM	

SMILES	Potency	activity, negative = active
N#C/C(=C\c1ccc(F)cc1)c1nc(-c2ccco2)cs1	inconclusive: 7.08 µM [inhibitor, partial curve, poor fit]	
N#C/C(=C/c1ccc(N2CCCCCC2)o1)c1ccc(Cl)cc1	inconclusive: 3.16 µM [inhibitor, full curve, poor fit]	
COc1cc(NC(C)CCCN)c2ncccc2c1Oc1ccccc1 (stereo unspecified)	inconclusive: 17.8 µM [inhibitor, single point]	
O=C(NC(CO)C(=O)OCc1ccccc1)OCc1ccccc1 (stereo unspecified)	inconclusive: 3.16 µM [inhibitor, single point]	
O=C(c1ccco1)N1CCN(C(c2ccc(Cl)cc2)c2nnnn2Cc2ccccc2)CC1 (stereo unspecified)		inactive: 1.55%
CC(C)N1CCc2c(sc(NC(=O)c3ccc4ccccc4c3)c2C(N)=O)C1	inconclusive: 17.8 µM [inhibitor, partial curve, poor fit]	
O=C(CSc1nc2scc(-c3ccco3)c2c(=O)n1-c1ccccc1)NCC1CCCO1 (stereo unspecified)		inactive: 0.807%
C=CC[C@H](CC(=O)NCCO)C(=O)N[C@H](COC(=O)[C@@H](CC=C)CC(=O)OC(C)(C)C)Cc1ccccc1		inactive: 4.64%
OC(CNCC1CCCO1)Cn1c2ccccc2c2ccccc21 (stereo unspecified)		inactive: -14.6%
COc1cc(OC)c(OC)cc1/C=N/n1c(COc2ccccc2)n[nH]c1=S	inconclusive: 6.31 µM [inhibitor, single point]	
Cc1ccc(-c2nc(S(=O)(=O)c3ccc(C)cc3)c(N(C)C)o2)cc1		inactive: 5.67%
CCn1c(/C=C/c2c(C)[nH]c3ccccc23)nc2ccccc2c1=O	inconclusive: 15.8 µM [inhibitor, partial curve, poor fit]	
Cc1ccc(S[C@@H](CCN2CC[C@H](C(C)(C)C)CCC2=O)c2ccccc2)cc1	inconclusive: 35.5 µM [inhibitor, single point]	
COc1ccccc1Nc1nc(-c2ccccc2)c(CC(=O)O)s1		inactive: -0.0193%
COCC(=O)Nc1nnc(COc2ccc(Cl)cc2)s1		inactive: -6.09%
CC(Sc1cccc[n+]1[O-])c1ccccc1 (stereo unspecified)	inconclusive: 35.5 µM [inhibitor, single point]	
Cc1ccc2cccc(SCC(=O)NCC#N)c2n1	inconclusive: 3.98 µM [inhibitor, single point]	
COc1cccc(-c2ccc3c(N)c(C(=O)c4ccc(F)cc4)sc3n2)c1	inconclusive: 35.5 µM [inhibitor, single point]	
C=CCN1C(=O)[C@@H]2Cc3c([nH]c4ccccc34)C(c3ccc(O)cc3)N2C1=S (stereo partly specified)	inconclusive: 3.55 µM [inhibitor, partial curve, poor fit]	
O=[N+]([O-])/C(C=Nc1ccccc1O)=C\Nc1ccccc1O		inactive: 0.4%
Cc1ccc(NS(=O)(=O)c2c(C)nc3sccn3c2=O)c(Cl)c1	inconclusive: 35.5 µM [inhibitor, single point]	
COc1cccc(/C=N/NC(=S)NCc2ccco2)c1OC	inconclusive: 25.1 µM [inhibitor, single point]	
CC(C)(C)OC(=O)N1CCC(c2cc(=O)n3[nH]cc(C(=O)NC4CCCC4)c3n2)CC1		inactive: 1.16%
N#Cc1c(C(F)(F)F)cc(-c2ccco2)nc1SCc1ccccn1	active: 25.1 µM	

SMILES	Potency	activity, negative = active
O=C(Nc1ccccc1)Nc1cccc2ccccc12	inconclusive: 3.55 µM [inhibitor, single point]	
C[N+]12CCC(CC1)C(OC(=O)C(O)(c1ccccc1)c1ccccc1)C2 (stereo unspecified)		inactive: 2.23%
CCN1C(=O)S/C(=C/c2ccsc2)C1=O	inconclusive: 35.5 µM [inhibitor, single point]	
C=CCN(CC=C)S(=O)(=O)c1ccc(C(=O)Nc2sc3c(c2C(N)=O)CCCCC3)cc1	inconclusive: 35.5 µM [inhibitor, single point]	
CN(C)C1(CNCC(O)c2ccccc2)CCCCC1 (stereo unspecified)	inconclusive: 35.5 µM [inhibitor, single point]	
Cc1cc(/C=N/NC(N)=S)c(C)n1-c1ccc(Cl)cc1	inconclusive: 20 µM [inhibitor, single point]	
Cc1nc2c(-c3ccccc3)c(C)nn2c(C)c1CCC(=O)NCCc1ccccc1		inactive: -7.66%
CCN1CCc2c(sc(-n3cccc3)c2C(C)NC(=O)Nc2cc(Cl)c(OC)cc2OC)C1 (stereo unspecified)	inconclusive: 35.5 µM [inhibitor, single point]	
O=C(/C=C/c1ccccc1Cl)Nc1cccc(O)c1		inactive: -0.816%
O=C(NNC(=O)C1CCCCC1)c1cnccn1		inactive: 0.484%
Cc1cc(O)c(C(=O)/C=C/c2ccccc2)c(=O)o1	inconclusive: 1.41 µM [inhibitor, partial curve, poor fit]	
CC(=O)c1ccc(NC(=O)CSc2nnc(-c3ccncc3)o2)cc1	inconclusive: 14.1 µM [inhibitor, partial curve, poor fit]	
c1ccc2cc(-c3cc4ccccn4c3)ccc2c1		inactive: -5.61%
O=C(Nc1ccccc1F)C(=Cc1sc(N2CCOCC2)nc1-c1ccccc1)C(=O)Nc1ccccc1F	inconclusive: 3.16 µM [inhibitor, full curve, poor fit]	
CN(Cc1ccccc1)S(=O)(=O)c1nnc(NC(=O)c2ccccc2Cl)s1		inactive: 1.27%
CCCc1cc(=O)[nH]c(Nc2ccccc2O)n1	inconclusive: 35.5 µM [inhibitor, single point]	
O=CNc1ccc2c3c(cccc13)-c1ccccc1-2	inconclusive: 15.8 µM [inhibitor, partial curve, poor fit]	
COc1cccc(COC(=O)C2CC(=O)N(Cc3ccc(C)cc3)C2)c1OC (stereo unspecified)	inconclusive: 35.5 µM [inhibitor, single point]	
CC1CCc2c(C(=O)NCc3ccco3)csc2C1 (stereo unspecified)	inconclusive: 11.2 µM [inhibitor, single point]	
CCCCn1c(N)c(N(CCC(C)C)C(=O)COC(=O)c2ccc([N+](=O)[O-])s2)c(=O)[nH]c1=O	inconclusive: 35.5 µM [inhibitor, single point]	
Cc1c(C(=O)NC2CCCc3ccccc32)oc2ccc(S(=O)(=O)N3CCCCC3)cc12 (stereo unspecified)	inconclusive: 6.31 µM [inhibitor, partial curve, poor fit]	
O=C(Cc1ccc2ccccc2c1)Nc1ccccc1Br		inactive: -17.5%
O=C(NCCN1CCN(c2ccccc2)CC1)c1cccn2c(=O)c3cc(Cl)ccc3nc12	inconclusive: 35.5 µM [inhibitor, single point]	

One compound at a time, from the list above:
`O=C(Cc1ccc2ccccc2c1)Nc1ccccc1Br` as listed: activity, negative = active: inactive: -17.5%
`CCCn1c(C(C)Nc2nc(-c3ccc(OC)cc3)cs2)nc2ccccc21` (stereo unspecified) as listed: Potency: inconclusive: 20 µM [inhibitor, partial curve, poor fit]
`Cc1cc(/C=N/NC(N)=S)c(C)n1-c1ccc(Cl)cc1` as listed: Potency: inconclusive: 20 µM [inhibitor, single point]
`C=CCN1C(=O)[C@@H]2Cc3c([nH]c4ccccc34)C(c3ccc(O)cc3)N2C1=S` (stereo partly specified) as listed: Potency: inconclusive: 3.55 µM [inhibitor, partial curve, poor fit]

Source: PubChem BioAssay AID602313 (National Center for Advancing Translational Sciences (NCATS), 2012)
